One experiment addresses T1, GST-PP1R6 (UniProt O95685).
T1 sequence: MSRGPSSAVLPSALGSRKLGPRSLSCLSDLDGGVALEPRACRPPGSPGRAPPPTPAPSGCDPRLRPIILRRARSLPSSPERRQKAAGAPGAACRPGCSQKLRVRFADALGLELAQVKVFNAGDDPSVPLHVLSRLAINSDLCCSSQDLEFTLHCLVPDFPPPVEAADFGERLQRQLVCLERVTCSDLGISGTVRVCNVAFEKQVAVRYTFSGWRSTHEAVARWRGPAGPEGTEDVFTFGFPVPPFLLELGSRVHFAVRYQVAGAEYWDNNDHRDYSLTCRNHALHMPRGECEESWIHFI
Nature of the experiment: pull-down.

Sequences of proteins named here, by UniProt entry; tags and fusion partners are left off.
UniProt P50552: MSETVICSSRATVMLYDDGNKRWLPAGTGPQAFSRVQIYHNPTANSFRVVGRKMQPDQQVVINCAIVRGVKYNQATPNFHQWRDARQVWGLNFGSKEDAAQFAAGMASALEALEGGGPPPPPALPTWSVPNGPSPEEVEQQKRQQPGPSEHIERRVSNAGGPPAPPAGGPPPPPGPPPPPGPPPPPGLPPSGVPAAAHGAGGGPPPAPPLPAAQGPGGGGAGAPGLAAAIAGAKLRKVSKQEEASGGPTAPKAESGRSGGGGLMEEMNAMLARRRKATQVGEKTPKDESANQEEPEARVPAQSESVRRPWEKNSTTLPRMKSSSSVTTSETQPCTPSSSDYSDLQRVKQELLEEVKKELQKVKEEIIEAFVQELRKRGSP

For experiment [1], the target named is His6-tagged VASP (vasodilator-stimulated phosphoprotein), expressed in HEK cells (UniProt P50552). Nature of the experiment: co-IP.

These are yes or no findings as the source states them, for the method shown. For some assays here: Binding seen in cells or lysates may run through a third protein. Some entries that bind do so weakly or less than the wild type. Tags and fused reporters may be left off the sequences shown.

In the case of “purified His6-VASP (recombinant VASP) (from UniProt P50552 1-380)”, in the experiment with GST-PP1R6, the binding entry was “binds”.

B1: human flag-tagged PP1R6 (protein phosphatase 1 regulatory subunit 6) (protein, UniProt O95685 1-299)
chain: MSRGPSSAVLPSALGSRKLGPRSLSCLSDLDGGVALEPRACRPPGSPGRAPPPTPAPSGCDPRLRPIILRRARSLPSSPERRQKAAGAPGAACRPGCSQKLRVRFADALGLELAQVKVFNAGDDPSVPLHVLSRLAINSDLCCSSQDLEFTLHCLVPDFPPPVEAADFGERLQRQLVCLERVTCSDLGISGTVRVCNVAFEKQVAVRYTFSGWRSTHEAVARWRGPAGPEGTEDVFTFGFPVPPFLLELGSRVHFAVRYQVAGAEYWDNNDHRDYSLTCRNHALHMPRGECEESWIHFI
For the molecule B1, the binding entry in experiment [1] was “binds”.

These data come from publication doi:10.1101/2023.04.19.537577.
